These are yes or no findings as the source states them, for the method shown. In cells and extracts the contact can be indirect. Here binding means that the protein was enriched with, or labelled near, the bait; the list need not be complete. Sequences can lack the tags named with a protein.
Molecular target: T1, Flag-tagged DExH-box helicase 58 (DHX58) (UniProt Q99J87)
T1 sequence: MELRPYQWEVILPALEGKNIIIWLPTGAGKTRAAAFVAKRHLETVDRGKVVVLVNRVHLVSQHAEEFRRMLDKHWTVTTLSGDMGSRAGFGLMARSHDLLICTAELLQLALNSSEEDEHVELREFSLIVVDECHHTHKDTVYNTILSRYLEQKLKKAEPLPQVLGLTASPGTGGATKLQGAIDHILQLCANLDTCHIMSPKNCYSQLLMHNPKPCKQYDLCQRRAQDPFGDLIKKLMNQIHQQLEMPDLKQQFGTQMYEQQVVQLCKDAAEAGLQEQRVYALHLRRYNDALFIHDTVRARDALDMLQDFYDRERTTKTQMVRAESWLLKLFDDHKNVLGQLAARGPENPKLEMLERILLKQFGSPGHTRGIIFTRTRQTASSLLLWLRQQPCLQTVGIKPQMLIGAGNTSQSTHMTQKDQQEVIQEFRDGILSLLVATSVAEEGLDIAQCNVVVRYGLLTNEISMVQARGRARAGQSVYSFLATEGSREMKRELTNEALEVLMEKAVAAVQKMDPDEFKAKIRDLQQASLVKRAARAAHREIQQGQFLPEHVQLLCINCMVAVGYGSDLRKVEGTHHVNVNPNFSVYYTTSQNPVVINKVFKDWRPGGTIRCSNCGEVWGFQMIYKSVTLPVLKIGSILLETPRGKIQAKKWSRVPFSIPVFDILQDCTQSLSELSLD
Experiment: affinity purification with mass spectrometry; immunoprecipitation of Flag-tagged DHX58 from the lysates of transfected hepatocytes; MS of the associated proteins

B1: YT521-B homology domain containing 2 (YTHDC2), found with Flag-DHX58 in transfected hepatocytes (protein, UniProt B2RR83 1-1445)
chain: MSRPSSVSPRPPAPSGGGTGGGGGGSGGGGGGGGGGPASCGPGGGGRAKGLKDIRIDEEVKIAVNIALERFRYGDQREMEFPSSLTSTERAFIHRLSQSLGLVSKSKGKGANRYLTVKKKDGSETAHAMMTCNLTHNTKHAVRSLIQRFPVTNKERTELLPKTERGNVFAVEAENREMSKTSGRLNNGIPQVPVKRGESEFDSFRQSLPVFEKQEEIVKIIKENKVVLIVGETGSGKTTQIPQFLLDDCFKNGIPCRIFCTQPRRLAAIAVAERVAAERRERIGQTIGYQIRLESRVSPKTLLTFCTNGVLLRTLMAGDSTLSTVTHVIVDEVHERDRFSDFLLTKLRDLLQKHPTLKLILSSAALDVNLFIRYFGSCPVIYIQGRPFEVKEMFLEDILRTTGYTNKEMLKYKKEKQREEKQQTTLTEWYSAQENTFKPESQRQRAVASVSEEYDLLDDGGDAVFSQLTEKDVNCLEPWLIKEMDACLSDIWLHKDVDAFAQVFHLILTENVSVDYRHSETSATALMVAAGRGFTSQVEQLISMGANVHSKASNGWMALDWAKHFGQTEIVDLLESYSASLEFGNLDESSLVQTNGNDLSAEDRELLKAYHHSFDDEKVDLDLIMHLLYNICHSCDAGAILIFLPGYDEIVGLRDRILFDDKRFADNTHRYQVFMLHSNMQTSDQKKVLKNPPAGVRKIILSTNIAETSITVNDVVFVIDSGKVKEKSFDALNFVTMLKMVWISKASAIQRKGRAGRCRPGICFRLFSRLRFQNMLEFQTPELLRMPLQELCLHTKLLAPVNCTIADFLMKAPEPPPALIVRNAVQMLKTIDAMDAWEDLTELGYHLADLPVEPHLGKMVLCAVVLKCLDPILTIACTLAYRDPFVLPTQASQKRAAMLCRKRFTAGTFSDHMALLRAFQAWQKARSDGWERAFCEKNFLSQATMEIIIGMRTQLLGQLRASGFVRARGGGDIRDVNTNSENWAVVKAALVAGMYPNLVHVDRENVILTGPKEKKVRFHPTSVLSQPQYKKIPPANGQAAAIQALPTDWLIYDEMTRAHRIANIRCCSAVTPVTVLVFCGPARLASNALQEPSSFRADGIPNDSSDSEMEDRTTANLAALKLDEWLNFKLEPEAASLLLQLRQKWHSLFLRRMRAPSKPWSQVDEATIRAIIAVLSTEEQSAGLQQPSGIGQRPRPMSSEELPLASSWRSNNSRKSTADTEFADGSTTGERVLMKSPSPALHPPQKYKDRGILHPKRSTDDRSDQSSVKSTDSSSYPSPCASPSPPSSGKGSKSPSPRPNMPIRYFIMKSSNLRNLEISQQKGIWSTTPSNERKLNRAFWESSMVYLVFSVQGSGHFQGFSRMSSEIGREKSQDWGSAGLGGVFKVEWIRKESLPFQFAHHLLNPWNDNKKVQISRDGQELEPQVGEQLLQLWERLPLGEKTTSD
  binding: binds
